One experiment deals with T1, Plk4 (Drosophila) (UniProt O97143).
T1 sequence: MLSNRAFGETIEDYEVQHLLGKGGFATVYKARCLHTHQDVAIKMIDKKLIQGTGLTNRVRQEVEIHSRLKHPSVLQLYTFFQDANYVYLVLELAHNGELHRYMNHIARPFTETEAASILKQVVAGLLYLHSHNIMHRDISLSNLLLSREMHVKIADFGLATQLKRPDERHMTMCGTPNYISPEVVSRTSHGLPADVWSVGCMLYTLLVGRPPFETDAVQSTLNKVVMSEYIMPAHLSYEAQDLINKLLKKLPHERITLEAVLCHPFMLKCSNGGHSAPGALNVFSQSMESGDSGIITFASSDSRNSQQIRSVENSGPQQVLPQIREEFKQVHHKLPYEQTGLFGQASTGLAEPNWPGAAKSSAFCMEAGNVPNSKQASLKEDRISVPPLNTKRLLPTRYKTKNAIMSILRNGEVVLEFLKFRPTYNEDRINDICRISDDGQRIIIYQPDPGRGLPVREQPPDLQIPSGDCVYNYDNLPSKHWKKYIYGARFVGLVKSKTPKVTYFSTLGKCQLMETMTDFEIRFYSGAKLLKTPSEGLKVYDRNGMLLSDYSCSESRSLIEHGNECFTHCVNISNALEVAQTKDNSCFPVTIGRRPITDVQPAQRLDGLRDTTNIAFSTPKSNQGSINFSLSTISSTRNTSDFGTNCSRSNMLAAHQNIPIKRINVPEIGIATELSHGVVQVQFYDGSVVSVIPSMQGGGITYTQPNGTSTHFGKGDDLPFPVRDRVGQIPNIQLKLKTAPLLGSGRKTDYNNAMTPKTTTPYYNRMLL
Put plainly: two-hybrid; array-based mating screen (modified Matchmaker Gold; Y2HGold x Y187), every construct as bait and as prey; interactions reported at the highest stringency (QDOXA plates), 30 °C, scored 0-3.

For experiment [1], the target named is T2, Sas-4 (Drosophila), Q9VI72.
T2 chain: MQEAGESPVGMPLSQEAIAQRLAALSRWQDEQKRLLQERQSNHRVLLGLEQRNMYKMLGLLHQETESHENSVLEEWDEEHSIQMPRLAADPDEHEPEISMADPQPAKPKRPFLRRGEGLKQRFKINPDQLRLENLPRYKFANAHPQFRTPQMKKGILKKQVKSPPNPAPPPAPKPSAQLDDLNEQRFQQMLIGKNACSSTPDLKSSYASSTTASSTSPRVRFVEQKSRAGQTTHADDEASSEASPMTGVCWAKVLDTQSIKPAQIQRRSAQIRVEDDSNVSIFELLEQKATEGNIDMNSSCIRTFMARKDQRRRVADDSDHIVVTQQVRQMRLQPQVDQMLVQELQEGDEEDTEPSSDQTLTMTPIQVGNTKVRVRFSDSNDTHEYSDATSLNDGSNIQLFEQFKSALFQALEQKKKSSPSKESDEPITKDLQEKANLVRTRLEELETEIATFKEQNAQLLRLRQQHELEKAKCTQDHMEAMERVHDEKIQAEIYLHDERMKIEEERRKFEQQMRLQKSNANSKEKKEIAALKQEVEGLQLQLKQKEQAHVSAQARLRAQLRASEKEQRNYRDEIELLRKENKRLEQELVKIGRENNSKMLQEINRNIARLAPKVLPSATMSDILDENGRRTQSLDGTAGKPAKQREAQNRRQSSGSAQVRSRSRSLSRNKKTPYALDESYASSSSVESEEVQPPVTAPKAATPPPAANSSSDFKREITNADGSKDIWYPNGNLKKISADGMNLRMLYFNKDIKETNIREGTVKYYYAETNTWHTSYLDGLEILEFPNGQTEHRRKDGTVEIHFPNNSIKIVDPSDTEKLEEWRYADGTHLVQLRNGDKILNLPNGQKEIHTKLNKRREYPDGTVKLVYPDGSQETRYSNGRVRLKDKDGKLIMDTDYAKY
The description is as above. Conditions: remark: other sources report otherwise.

These are yes or no findings as the source states them, for the method shown. Some binding calls cover weakened binding; strength is not graded here.

B1: Asl (protein, UniProt Q9VNE4 1-994)
chain: MNTPGISLFQGADALNINSTLDRQEEEEALQDQKRREEELGRIMVNAFDDLLDEENTIDSTTNYQSELEQPPVLPNYPSHPHHKPLQDDAQRANEIEMHRLQILLESKNNELQNVNQVANAAHKKLDDLQKHLSIMQAELDRAIREKQNTHELLVETKETCSNKDSDLDKLRSEKKQLEEDNTRLVGQLEAAKTLLTDVQSKYDMVQASKQKWEERNADLRLKQMEEAHRAQSDLLQQQLCQMKDQLDRKQNELDQINSRYNALQSGHETMLVDKAAKINELSQALDEAQMRCNQLSARPDLQAENRRQQQCIVDLKARIAYLEQTVASLHERLNETTTELDLIDSVIQQHQADESPTSRLSQMGGSRLVGSTPLNPLDRVGHIKQELYRALGNLKNKREEVRRLEKLLEERNQELRVLRDQENQSLVQLETLNEGKMRLENKVKAMQQELEEQKHRSQQESDVHSQLNSIVAERDALREKRQQIEEDLEQLKQQNESLQRNYDQLSQENRQLRTRETADNLRLELERHKILLRDSQSEVERLKKLYSDIATDKESLGYELRKLRESDTLKELQDQRQNLATVQRNLQLAEMKSEELKKLLETEKLSHERDLQALRQRSEREKREEAVAVAKESSENCSKCIESIAEITKAEIQLLKLQNVNSMQAKELKELEHALEQSKNLQAEMQEKIELSNKQDELISDLKERAKQFEAYIRQQEEHKQQNKCTPSPKSNSVSPSDPSPKELTQNRIRLIEQRVRDEMAKLFAAELKRFTNRLQKSEERSQCLQREYQTVCAELQQRQTEVDLLKQTILAERENIDEILAGREEKQKEMLQKCRQELQAKNQRIAELLREVEEQHASIDSERQSMKAVMAQWEKQRQSVDQVEHHWRQQLESLRSTHEEAMRSAQQRYQSAKRTAHNYKLYAEDKEAHMKREYERIKHEYELSLAKIEATMNQHLERRSREKHRDKENVPSNSSSDPITNSNRKPKGNGHS
As to B1, the binding entry with Plk4 (Drosophila) is recorded as “binds”.

B2: Ana2 (protein, UniProt Q9XZ31 1-420)
chain: MFVPETEDMLPRLAPRPSAAVPMGHTNEIIGPTVPEVSILFGQPPQDPQMQPQQPNHAHQESSPRAAPTFASWKKQMLPRVNFSPILATELGPRTAPSSNSPCSSKEYQVMPRDRNYASDAQQTTNHMNCNAGGYNAEPKQQAYQSRRLSSSSNADVLTICAGTQTDPFNPSPPRKSLPQVVYSDIDVSNLANKSDLAALVSLVESVRHEQQQLRNLCEMILEQQQRAKPEAISKASSTTGTQCDILTTNQAGRRLSPIMQDYIAEEEEPLPPPQARVIPQFPSPRPHPPIAQSTGYRANTPQAKRIPQLAKPNTEKSMVMNELALKYLRQPVDELMKDMRLGASPKSPNPEPLRPIDNIGHAQSPNDISNASYKYLKKYRLLPEEQLEPVCPQSPMAATAPSPHIQLDLENIRNQPKLL
As to B2, the binding result with Plk4 (Drosophila) is listed as “binds”.

B3: Sas-4, Q9VI72 1-901 (protein)
chain: T2 chain
For the molecule B3, the binding result in experiment [1] is given as “binds”.

The values above are taken from article PMC5007297.
